The results in this text go back to PubChem BioAssay AID248 (DTP/NCI, 2004).

For this experiment, the system named is L1210 leukemia ip in BDF1 mice, survival T/C. Kind of experiment: NCI In Vivo Anticancer Drug Screen. Data for tumor model L1210 Leukemia (intraperitoneal) in B6D2F1 (BDF1) mice. As to conditions: T/C endpoint: mean survival time, higher T/C = longer survival.
Setting [1] is: dose: 12.5 mg/kg/injection, schedule: Q01DX001 (ip), vehicle: carboxymethylcellulose (CMC).
Setting [2] is: dose: 25.0 mg/kg/injection, schedule: Q01DX001 (ip), vehicle: carboxymethylcellulose (CMC).
Where [3] appears, read: dose: 200.0 mg/kg/injection, schedule: Q04DX002 (ip), vehicle: Klucel (hydroxypropylcellulose) (HPC).

Each structure is given as a SMILES string. The list does not hold the whole screen: it gathers tests that were run many times, whatever their T/C, doses with no T/C, and many T/C values between a quarter and a half above the control. Further doses and runs are listed elsewhere. T/C is the treated group as % of the vehicle group. Some entries give survivors of the animals treated and no T/C: the source holds a T/C of zero for them, seemingly a mark for toxic or unscored doses. Some doses without a T/C left all or most animals alive at the check, yet need not have been tolerated: the source hardly ever lists a survival T/C far under the control, and the zero likely stands for such cases as well. Counts of survivors are from the toxicity check (mostly the fifth day) where no day follows; animals may have died later. Schedule codes are those of the source, taken here to give the interval after Q, in days (D) or hours (H), and the number of doses after X. Some schedule codes hold Z or #, which are not explained here. For survival time, the PubChem record calls one and a half times the control and up active, and a quarter to a half above the control has no call in these data; cut-offs in other NCI protocols can differ. Some entries hold several experiments; the values are given in rising order. Some T/C values are followed by the survivors on the day toxicity was checked, most often the fifth; without a count, all were alive then.

`Cc1c(CNc2ccc(C(=O)NC(CC(=O)O)C(=O)O)cc2)ccc2nc(N)nc(N)c12` (configuration not stated): the T/C was 133 % of control (dose: 0.12 mg/kg/injection, schedule: Q01DX009 (ip), vehicle: other); 135 % of control (dose: 1.56 mg/kg/injection, schedule: Q01DX001 (ip), vehicle: carboxymethylcellulose (CMC)); 127 % of control (dose: 2.0 mg/kg/injection, schedule: Q02DX005 (ip), vehicle: water); 139 % of control (dose: 3.13 mg/kg/injection, schedule: Q01DX001 (ip), vehicle: carboxymethylcellulose (CMC)); 129 % of control (dose: 3.13 mg/kg/injection, schedule: Q01DX001 (ip), vehicle: other); 146 % of control (dose: 6.25 mg/kg/injection, schedule: Q01DX001 (ip), vehicle: carboxymethylcellulose (CMC)). In addition, the T/C was 131 % of control (dose: 6.25 mg/kg/injection, schedule: Q01DX001 (ip), vehicle: other); 128 and 146 % of control under setting [1]; 145 % of control (dose: 12.5 mg/kg/injection, schedule: Q01DX001 (ip), vehicle: other); 137 % of control under setting [2]; 133 % of control [5 of 6 alive] (dose: 75.0 mg/kg/injection, schedule: Q01DX001 (ip), vehicle: carboxymethylcellulose (CMC)). Further, the survivor count is recorded as 6 of 6 (dose: 0.19 mg/kg/injection, schedule: Q01DX009 (ip), vehicle: carboxymethylcellulose (CMC)); 6 of 6 (dose: 0.38 mg/kg/injection, schedule: Q01DX009 (ip), vehicle: carboxymethylcellulose (CMC)); 6 of 6 (dose: 0.5 mg/kg/injection, schedule: Q01DX009 (ip), vehicle: other); 4 of 6 (dose: 0.75 mg/kg/injection, schedule: Q01DX009 (ip), vehicle: carboxymethylcellulose (CMC)); 5 of 6 (dose: 0.75 mg/kg/injection, schedule: Q01DX009 (ip), vehicle: other); 6 of 6 (dose: 1.0 mg/kg/injection, schedule: Q01DX009 (ip), vehicle: other). Also, the survivor count runs as follows: (dose: 1.5 mg/kg/injection, schedule: Q01DX009 (ip), vehicle: carboxymethylcellulose (CMC)) 5 of 6; (dose: 1.5 mg/kg/injection, schedule: Q01DX009 (ip), vehicle: other) 3 of 6; (dose: 3.0 mg/kg/injection, schedule: Q01DX009 (ip), vehicle: carboxymethylcellulose (CMC)) 3 of 6; (dose: 3.0 mg/kg/injection, schedule: Q01DX009 (ip), vehicle: other) 1 of 6; (dose: 6.0 mg/kg/injection, schedule: Q01DX009 (ip), vehicle: carboxymethylcellulose (CMC)) 3 of 6; (dose: 6.0 mg/kg/injection, schedule: Q01DX009 (ip), vehicle: water) 10 of 10. In addition, the survivor count reads like this: (dose: 9.0 mg/kg/injection, schedule: Q01DX009 (ip), vehicle: water) 9 of 10; (dose: 12.0 mg/kg/injection, schedule: Q01DX009 (ip), vehicle: carboxymethylcellulose (CMC)) 2 of 6; under setting [1], 1 of 6; (dose: 16.0 mg/kg/injection, schedule: Q02DX005 (ip), vehicle: water) 9 of 9; under setting [2], 2 of 6; (dose: 25.0 mg/kg/injection, schedule: Q01DX001 (ip), vehicle: other) 3 of 6. For the same molecule, the survivor count by setting is: (dose: 50.0 mg/kg/injection, schedule: Q01DX001 (ip), vehicle: carboxymethylcellulose (CMC)) 1 of 6; (dose: 50.0 mg/kg/injection, schedule: Q01DX001 (ip), vehicle: other) 1 of 6; (dose: 100.0 mg/kg/injection, schedule: Q01DX001 (ip), vehicle: carboxymethylcellulose (CMC)) 3 of 6; (dose: 100.0 mg/kg/injection, schedule: Q01DX001 (ip), vehicle: other) 0 of 6; (dose: 150.0 mg/kg/injection, schedule: Q01DX001 (ip), vehicle: carboxymethylcellulose (CMC)) 2 of 6; (dose: 200.0 mg/kg/injection, schedule: Q01DX001 (ip), vehicle: carboxymethylcellulose (CMC)) 2 of 6. Besides, the survivor count is given as 0 of 6 (dose: 200.0 mg/kg/injection, schedule: Q01DX001 (ip), vehicle: other) and 3 of 6 (dose: 300.0 mg/kg/injection, schedule: Q01DX001 (ip), vehicle: carboxymethylcellulose (CMC)).
With `ClC1=c2ccccc2=C2C(Cl)=c3ccccc3=C12`, the survivor count under setting [3] is 2 of 3.
Take `CCCCCCCCCCC(=O)N(CC)CC`: the survivor count (dose: 400.0 mg/kg/injection, schedule: Q01DX009 (ip), vehicle: carboxymethylcellulose (CMC)) was 3 of 3.
Consider `O=C(NCCCl)Nc1ccc2c(c1)CCC2`, for which, where the note is “dose: 400.0 mg/kg/injection, schedule: Q04DX003 (ip), vehicle: Klucel (hydroxypropylcellulose) (HPC)”, the survivor count is listed as 6 of 6.
Regarding `CC12CC3CC(C1)CC(NCCO)(C3)C2`, the survivor count is 0 of 3 (dose: 100.0 mg/kg/injection, schedule: Q04DX002 (ip), vehicle: Klucel (hydroxypropylcellulose) (HPC)); 0 of 3 under setting [3]; 0 of 3 (dose: 400.0 mg/kg/injection, schedule: Q04DX002 (ip), vehicle: Klucel (hydroxypropylcellulose) (HPC)).
On to `CSc1cc(C)c(OC(=O)Nc2c(C)cccc2C)c(CO)c1`, for which the survivor count (dose: 400.0 mg/kg/injection, schedule: Q04DX003 (ip), vehicle: saline with Tween-80) is 5 of 6.
In the case of `CN1CCCN(C)CC1`, the survivor count (dose: 100.0 mg/kg/injection, schedule: Q01DX009 (ip), vehicle: saline with Tween-80) was 3 of 6 and the survivor count (dose: 400.0 mg/kg/injection, schedule: Q01DX009 (ip), vehicle: saline with Tween-80) was 3 of 6.
Take `C[N+](C)(C)CCCNC(=O)Nc1ccc(Cl)cc1`: the survivor count reads like this: (dose: 100.0 mg/kg/injection, schedule: Q04DX002 (ip), vehicle: saline) 0 of 3; (dose: 200.0 mg/kg/injection, schedule: Q04DX002 (ip), vehicle: saline) 0 of 3; (dose: 400.0 mg/kg/injection, schedule: Q04DX002 (ip), vehicle: saline) 0 of 3.
`O=[N+]([O-])c1ccc(N2CCN=N2)cc1`: the survivor count is on record as 2 of 6 (dose: 200.0 mg/kg/injection, schedule: Q01DX001 (ip), vehicle: saline); 3 of 6 (dose: 200.0 mg/kg/injection, schedule: Q04DX003 (ip), vehicle: saline sonified); 0 of 6 (dose: 400.0 mg/kg/injection, schedule: Q04DX003 (ip), vehicle: saline sonified).
For the molecule `NC(CCSCc1ccc(N(CCCl)CCCl)cc1)C(=O)O` (configuration not stated), the T/C was 130 % of control (dose: 6.0 mg/kg/injection, schedule: Q01DX Z (ip), vehicle: saline); 133 % of control (dose: 12.0 mg/kg/injection, schedule: Q01DX Z (ip), vehicle: saline); 143 % of control (dose: 21.0 mg/kg/injection, schedule: Q01DX009 (ip), vehicle: carboxymethylcellulose (CMC)); 147 % of control (dose: 36.0 mg/kg/injection, schedule: Q01DX009 (ip), vehicle: carboxymethylcellulose (CMC)); 136 % of control (dose: 36.0 mg/kg/injection, schedule: Q01DX Z (ip), vehicle: saline); 125 % of control (dose: 60.0 mg/kg/injection, schedule: Q01DX009 (ip), vehicle: carboxymethylcellulose (CMC)). The survivor count runs as follows: (dose: 100.0 mg/kg/injection, schedule: Q01DX009 (ip), vehicle: carboxymethylcellulose (CMC)) 6 of 6; (dose: 108.0 mg/kg/injection, schedule: Q01DX Z (ip), vehicle: saline) 6 of 6.
On to `O=C1C=CCC2c3nc4ccccc4cc3CN12` (configuration not stated), for which, where the note is “dose: 300.0 mg/kg/injection, schedule: Q04DX003 (ip), vehicle: saline”, the survivor count was 1 of 6.
For `O=C(COc1ccc(Cl)cc1)Nc1ccc(Cl)cc1`, the survivor count (dose: 200.0 mg/kg/injection, schedule: Q01DX009 (ip), vehicle: Klucel (hydroxypropylcellulose) (HPC)) was 5 of 6.
